Some of the results follow. These are further read-outs of the screen, such as a control signal, another cell line or another target. No call is given for them. Most of these compounds were active or inconclusive in the main read-out, so they are no random draw. Words in brackets tell the shape of the fitted curve; partial curves, single points and poor fits give uncertain potencies.
Experiment: qHTS Assay to Find Inhibitors of Chronic Active B-Cell Receptor Signaling
Conditions: ABC-DLBCL IkBa-CBG/CBR reporter, luminescence ratio (green luciferase fused to IkBa over red control in TMD8 lymphoma cells), 4 h
Procedure, shortened: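 Compounds up to 46 uM were incubated four hours with TMD8 cells whose green CBG68 luciferase is fused to IkappaBalpha; red CBR luminescence normalised the signal, and concentration-effect curves were fitted to fusion, red and ratio data.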

[1] = measured here: CBR red luminescence, cell number
[2] = measured here: IkBa-CBG green luminescence

| SMILES | AC50 [1] | AC50 [2] |
| --- | --- | --- |
| CNc1nc(C)nc(N/N=C/c2ccccc2)n1 | 7.94 µM [falling, partial curve] |  |
| CC1CCCCC1NC(=O)NC(=O)CCl (stereo not drawn) | 25.9 µM [falling, single point] |  |
| O=C1CCCc2nc(N3CCN(c4ccccc4)CC3)ncc21 | 0.794 µM [rising, full curve, poor fit] |  |
| C=CC[C@H](CC(=O)N(CCO)Cc1ccccc1)C(=O)N[C@@H](COC(=O)[C@@H](CC=C)CC(=O)OC(C)(C)C)Cc1c[nH]c2ccccc12 | 29.1 µM [falling, single point] |  |
| OC(COc1ccc2ccccc2c1)Cn1cncn1 (stereo not drawn) | 3.26 µM [rising, partial curve, poor fit] |  |
| COc1ccc(-c2cc3cc(OC)c(OC)cc3cn2)cc1 | 0.651 µM [rising, full curve, poor fit] |  |
| CCOC(=O)N1CCN(C(=O)c2cc(Cl)c(Cl)cc2C(=O)O)CC1 | 29.1 µM [rising, single point] |  |
| CCOC(=O)C1=C(C)NC(SCC(=O)O)=NC1c1ccccc1 (stereo not drawn) | 10 µM [falling, partial curve, poor fit] |  |
| COc1ccccc1OC(=O)C1CC(=O)N(c2ccc(Cl)cc2)C1 (stereo not drawn) | 6.51 µM [rising, single point] |  |
| Cc1ccc(C(=O)CCC(=O)Nc2ccc(C)cn2)cc1 | 13 µM [falling, partial curve] |  |
| Cc1cccnc1NC(=O)C1COc2ccccc2O1 (stereo not drawn) | 35.5 µM [rising, single point] |  |
| Cc1cc2nc(-c3ccc(NC(=O)c4cccnc4)cc3)oc2cc1C | 2.24 µM [rising, partial curve, poor fit] |  |
| C(=N/N1CCN(c2ccccc2)CC1)/c1cccs1 | 1.16 µM [rising, full curve] |  |
| O=C(O)[C@H]1CCCC[C@H]1C(=O)NCCc1ccccc1 | 5.17 µM [rising, partial curve, poor fit] |  |
| CC(=O)c1cc2c(cc1NC(=O)c1c(-c3ccccc3)noc1C)OCO2 | 1.12 µM [falling, partial curve, poor fit] |  |
| Cc1ccc(N(CC(O)Cn2c3ccccc3c3ccccc32)S(C)(=O)=O)c(C)c1 (stereo not drawn) | 35.5 µM [falling, single point] |  |
| Cn1c(=O)c(C#N)c(-c2ccc(F)cc2)c2cc(C(=O)c3cc(Cl)cc(Cl)c3O)cnc21 | 14.1 µM [falling, single point] |  |
| CCOc1ccccc1NC(=S)NCc1ccccc1 | 1.26 µM [rising, full curve, poor fit] |  |
| O=C(CNC(=O)c1ccc([N+](=O)[O-])cc1)N/N=C\c1ccc(OC(=O)c2ccccc2)cc1 | 5.8 µM [falling, single point] |  |
| O=C(O)c1cc(Cl)ccc1NC(=O)C1CCCO1 (stereo not drawn) | 35.5 µM [falling, single point] |  |
| CCCc1nnc(SCC(=O)Nc2nccs2)o1 | 35.5 µM [rising, single point] | 35.5 µM [falling, single point] |
| NNC(=O)c1cccc(S(=O)(=O)Nc2cccc(C(F)(F)F)c2)c1 | 2 µM [falling, partial curve, poor fit] |  |

| SMILES | AC50 [1] | AC50 [2] |
| --- | --- | --- |
| O=C(N/N=C/c1ccc(Br)s1)c1c[nH]c2ccccc12 | 11.6 µM [falling, partial curve] |  |
| CCOc1ccc(S(=O)(=O)N2CCOCC2)cc1NC(=O)CSCc1c(C)noc1C | 20.6 µM [rising, single point] |  |
| CCOC(=O)N1CCN(C(=O)CSc2nc(CC)nc3c2c(=O)n(C)c(=O)n3C)CC1 | 0.447 µM [rising, partial curve, poor fit] |  |
| CCOC(=O)N1CCN(C(=O)Nc2ccc3oc(C)nc3c2)CC1 | 6.51 µM [falling, single point] |  |
| COc1ccc(OCC(O)CN2C(=O)NC(C)(C)C2=O)cc1 (stereo not drawn) | 2.82 µM [rising, partial curve, poor fit] |  |
| Cc1cccc(Nc2sc(C(=O)c3ccc(Cl)cc3)c(N)c2C(N)=O)c1 | 10 µM [falling, partial curve] |  |
| CCCNC(=O)c1c(CSc2ccccc2)noc1C(=O)NCc1ccccc1 | 35.5 µM [falling, single point] |  |
| O=C(Oc1c(Cl)cc(Cl)c2cccnc12)c1cccs1 |  | 16.4 µM [falling, partial curve] |
| NC(=O)c1ccccc1N/C=C/C(=O)c1ccccc1 | 0.731 µM [falling, full curve] |  |
| Cn1nc(-c2ccccc2)c(CSc2ccccc2Cl)c1Cl | 23.1 µM [rising, single point] |  |
| CCN(CC)C(=O)c1ccc(O)c(OC)c1 | 23.1 µM [rising, single point] |  |
| CC(C)c1nnc(NC(=O)CSc2nnc(-c3ccco3)o2)s1 | 12.6 µM [falling, partial curve, poor fit] |  |
| Cc1cc(NC(=O)CSc2n[nH]c(-c3ccccc3Br)n2)no1 | 2.06 µM [falling, partial curve, poor fit] |  |
| C=CCSc1nnc(-c2cc(C(C)(C)C)nn2Cc2ccc(F)cc2)n1C | 35.5 µM [rising, partial curve, poor fit] |  |
| Cc1ccc(-c2n[nH]c(=S)n2/N=C/C=C\c2ccccc2[N+](=O)[O-])cc1 | 3.26 µM [rising, single point] |  |
| Cc1cc(C)n(-c2nnc3n2N=C(c2ccccc2)CS3)n1 | 0.164 µM [rising, full curve, poor fit] |  |
| C=CCOc1ccc2ccccc2c1CNn1cn[nH]c1=S | 4.47 µM [rising, partial curve, poor fit] | 15.8 µM [falling, single point] |
| CCCCCC(=O)NNC1CC(=O)N(c2ccccc2)C1=O (stereo not drawn) | 5.62 µM [falling, single point] |  |
| Cc1ccc2c(c1)C(=O)OC(C(=O)Nc1ccccc1C(=O)O)C2 (stereo not drawn) | 1.12 µM [falling, full curve] |  |
| NC(=O)c1ccc(NC(=O)CCCN2C(=O)c3ccccc3C2=O)cc1 | 14.6 µM [rising, partial curve, poor fit] |  |
| O=S(=O)(Nc1ccc(-c2cn3ccccc3n2)cc1)c1ccccc1 | 17.8 µM [rising, partial curve, poor fit] |  |
| CCC(=O)Nc1c(S(=O)(=O)c2ccc(C)cc2)c2nc3ccccc3nc2n1C(C)c1ccccc1 (stereo not drawn) | 16.4 µM [falling, partial curve] |  |

Pulled by compound from the list above:

| SMILES | AC50 [1] | AC50 [2] |
| --- | --- | --- |
| CCOc1ccccc1NC(=S)NCc1ccccc1 | 1.26 µM [rising, full curve, poor fit] |  |
| O=C1CCCc2nc(N3CCN(c4ccccc4)CC3)ncc21 | 0.794 µM [rising, full curve, poor fit] |  |
| CCN(CC)C(=O)c1ccc(O)c(OC)c1 | 23.1 µM [rising, single point] |  |
| CCOC(=O)N1CCN(C(=O)CSc2nc(CC)nc3c2c(=O)n(C)c(=O)n3C)CC1 | 0.447 µM [rising, partial curve, poor fit] |  |

Later entries.

| SMILES | AC50 [1] | AC50 [2] |
| --- | --- | --- |
| CCOC(=O)C1CCN(c2c(N3CCCCCC3)c(=O)c2=O)CC1 | 18.4 µM [rising, partial curve, poor fit] |  |
| CC(=O)c1ccc(OC(=O)CCc2nc3ccccc3s2)cc1 | 5.01 µM [falling, partial curve, poor fit] |  |
| CC1CC1c1ccc(/C=C(\C#N)C(=O)Nc2ccc(Cl)cc2Cl)o1 (stereo not drawn) | 32.6 µM [falling, partial curve, poor fit] |  |
| Cc1cc(C(=O)OCC(=O)c2c(N)n(C)c(=O)n(C)c2=O)c(C)n1-c1ccccc1 | 3.66 µM [rising, partial curve, poor fit] |  |
| Cc1nc(NC(=O)c2cc3c(s2)CCCCC3)sc1C(=O)N(C)C | 3.16 µM [falling, single point] |  |
| Cc1ccc(NC(=O)C2CCCN(S(=O)(=O)c3cccs3)C2)cc1 (stereo not drawn) | 0.708 µM [falling, full curve, poor fit] |  |
| CCSC1=C(C#N)C(c2ccccc2C)CC(=O)N1 (stereo not drawn) | 0.00651 µM [rising, full curve, poor fit] |  |
| N#Cc1cn(CCCOc2ccccc2)c2ccccc12 | 10.3 µM [rising, partial curve, poor fit] |  |
| NC(=S)N/N=C/c1ccc(-c2ccc(SC(F)F)cc2)o1 | 2.82 µM [falling, full curve] | 5.62 µM [falling, single point] |
| O=c1cc(-c2ccccc2)oc2ccc(Br)cc12 | 1.64 µM [rising, full curve, poor fit] |  |
| CC(C)(C)c1ccc(/C=C2\Oc3c(ccc(O)c3CN3CCN(CCO)CC3)C2=O)cc1 | 14.1 µM [falling, single point] |  |
| Fc1ccc(-c2nnc(CSc3nnc(-c4ccc5c(c4)OCO5)o3)o2)cc1 | 3.16 µM [falling, single point] |  |
| O=C(CN1C(=O)NC2(CCCC2)C1=O)OCCOc1cccc(Cl)c1 | 2.91 µM [rising, full curve, poor fit] |  |
| CCCCn1c(SCC(N)=O)nc2ccc(N3CCOCC3)cc2c1=O | 25.1 µM [falling, single point] |  |
| O=C(O)c1ccc2nc(-c3ccccc3)sc2c1 | 3.66 µM [falling, full curve] |  |
| COc1cccc(NC(=O)C(=O)N/N=C(\C)CC(=O)Nc2ccc(NC(C)=O)cc2)c1 | 2.51 µM [falling, partial curve, poor fit] |  |
| Cc1ccc(S(=O)(=O)NCc2cn3ccsc3n2)c(C)c1 | 3.98 µM [falling, full curve] |  |
| NS(=O)(=O)c1ccc(N2N=C(c3ccc(Br)cc3)CC2c2ccc(F)cc2)cc1 (stereo not drawn) | 18.4 µM [falling, partial curve] |  |
| O=C(O)CCCCCCCCc1cn(Cc2ccc(C(=O)c3ccccc3)cc2)nn1 | 7.08 µM [rising, full curve] | 10 µM [falling, partial curve] |
| Cc1cc(C)n(-c2nc(NCC3CCCO3)c3c4c(sc3n2)COC(C)(C)C4)n1 (stereo not drawn) | 0.731 µM [falling, full curve, poor fit] |  |

Reference: PubChem BioAssay AID493014 (National Center for Advancing Translational Sciences (NCATS), 2011)
